{
  "sequences": {"note": "By UniProt entry, the sequences of proteins in these tests, tags left out. Where a name states a change or a piece, a line headed by the entry shows the natural chain unless it says otherwise.", "UniProt P69720": "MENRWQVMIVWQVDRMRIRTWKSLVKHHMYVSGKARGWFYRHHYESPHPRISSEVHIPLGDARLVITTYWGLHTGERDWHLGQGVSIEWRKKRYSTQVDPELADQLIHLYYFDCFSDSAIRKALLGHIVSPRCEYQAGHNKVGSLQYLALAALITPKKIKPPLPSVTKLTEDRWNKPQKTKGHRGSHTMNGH", "UniProt P69721": "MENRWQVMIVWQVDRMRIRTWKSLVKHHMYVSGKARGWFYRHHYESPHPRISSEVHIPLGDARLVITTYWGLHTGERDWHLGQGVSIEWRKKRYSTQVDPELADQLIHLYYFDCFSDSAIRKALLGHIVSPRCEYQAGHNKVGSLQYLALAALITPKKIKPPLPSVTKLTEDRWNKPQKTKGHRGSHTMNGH", "UniProt P69722": "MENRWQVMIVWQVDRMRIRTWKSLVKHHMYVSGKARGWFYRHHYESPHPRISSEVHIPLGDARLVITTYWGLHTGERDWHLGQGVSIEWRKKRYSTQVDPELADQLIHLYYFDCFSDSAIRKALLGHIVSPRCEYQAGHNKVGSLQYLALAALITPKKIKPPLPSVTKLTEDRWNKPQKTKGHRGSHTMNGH", "UniProt P69723": "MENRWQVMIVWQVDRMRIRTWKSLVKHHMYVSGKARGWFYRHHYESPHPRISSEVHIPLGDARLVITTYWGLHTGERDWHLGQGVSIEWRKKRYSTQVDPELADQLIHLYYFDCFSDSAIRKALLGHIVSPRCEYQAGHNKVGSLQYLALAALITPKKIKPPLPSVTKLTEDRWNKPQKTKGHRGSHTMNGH", "UniProt Q9HC16": "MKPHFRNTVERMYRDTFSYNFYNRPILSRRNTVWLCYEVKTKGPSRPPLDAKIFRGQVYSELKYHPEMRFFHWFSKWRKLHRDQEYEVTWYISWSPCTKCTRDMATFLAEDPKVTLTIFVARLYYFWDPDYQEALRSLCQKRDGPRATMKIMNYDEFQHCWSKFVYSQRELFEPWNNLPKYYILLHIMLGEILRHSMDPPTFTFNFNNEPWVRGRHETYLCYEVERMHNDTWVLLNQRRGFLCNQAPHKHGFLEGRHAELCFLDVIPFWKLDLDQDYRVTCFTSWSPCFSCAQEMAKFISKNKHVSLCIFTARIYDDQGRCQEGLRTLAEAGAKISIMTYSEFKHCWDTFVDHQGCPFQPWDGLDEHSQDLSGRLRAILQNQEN"},
  "source": "PubChem BioAssay AID1117319",
  "about": "(Southern Research Institute, 2015)",
  "note": "Out of some 260,000 compounds screened, about 1,500 (0.58%) were called active. This list was built around the results that the source calls inconclusive (neither active nor inactive); the mix of calls is not that of the screen.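 Rule for the calls: active = inhibition above a set limit at one or more doses, reproduced on every date tested; inconclusive = results disagree between test dates, or hit never tested in dose response; inactive = the rest.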",
  "data": [
    {"molecular_target": "Virion infectivity factor (Human immunodeficiency virus type 1 group M subtype B (isolate BH10)) + Virion infectivity factor (Human immunodeficiency virus type 1 group M subtype B (isolate BRU/LAI)) + Virion infectivity factor (Human immunodeficiency virus type 1 group M subtype B (isolate PCV12)) + Virion infectivity factor (Human immunodeficiency virus type 1 group M subtype B (isolate HXB2)) + DNA dC->dU-editing enzyme APOBEC-3G (Homo sapiens) (UniProt P69720+P69721+P69722+P69723+Q9HC16)", "assay": "inhibitors of Vif binding to APOBEC3G peptide, primary screen, biochemical, TR-FRET, GST-Vif 1-94, biotin-A3G peptide, dose response retest (AID 1117319);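 note: Vif residues 1-94 fused to GST binding biotinylated APOBEC3G peptide 110-148; 0% = full assay without inhibitor and 100% = GST in place of GST-Vif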", "conditions": "hits give high values", "values": [
      {"smiles": "CSc1ccc(C(=O)C2CCCN(C(=O)c3ccc(C)nc3)C2)cc1", "note": "(stereo not drawn)", "inhibition": "inconclusive: 46%"},
      {"smiles": "S=c1[nH]nc(C2(c3ccccc3)CCCC2)o1", "inhibition": "inconclusive: 33.9%"},
      {"smiles": "COc1c(O)cc2oc(-c3ccc(O)cc3)cc(=O)c2c1O", "inhibition": "inactive: 19.4%"},
      {"smiles": "O=c1[nH]n(-c2ccc(Cl)cc2)c(=O)c(Cl)c1Cl", "inhibition": "inconclusive: 37%"},
      {"smiles": "CC(C)n1nnnc1C(c1ccc(F)cc1)N1CCN(C2CCCC2)CC1", "note": "(stereo not drawn)", "inhibition": "inconclusive: 43.1%"},
      {"smiles": "Cc1ccc(C(=O)/C=C/c2ccc3c(c2)OCCO3)c(O)c1", "inhibition": "inconclusive: 36%"},
      {"smiles": "CCn1c(=O)c(-[n+]2ccccc2)c(O)c2ccccc21", "inhibition": "inconclusive: 34.3%"},
      {"smiles": "O=C(Oc1ccc2ccc(O)cc2c1)C1CCCCC1", "inhibition": "inconclusive: 44.5%"},
      {"smiles": "CCCCNC(=O)c1ccc(NS(=O)(=O)c2ccccc2)cc1", "inhibition": "inconclusive: 51.2%"},
      {"smiles": "COc1ccccc1NC(=O)c1nnn(CC(=O)Nc2cccc(SC)c2)c1N", "inhibition": "inconclusive: 34.2%"},
      {"smiles": "CCOC(=O)C1=C(O)c2ccccc2C(=O)/C1=C\\c1ccc(C)cc1", "inhibition": "inconclusive: 45%"},
      {"smiles": "NNC(=O)CC(=O)NC1(Cc2ccc(O)cc2)CCCCC1", "inhibition": "inconclusive: 45.4%"},
      {"smiles": "CCCCS(=O)(=O)C1CCS(=O)(=O)C1", "note": "(stereo not drawn)", "inhibition": "inconclusive: 48.1%"},
      {"smiles": "O=C(CSc1ccc2nnc(-c3ccncc3)n2n1)Nc1nccs1", "inhibition": "inactive: -1.26%"},
      {"smiles": "O=[N+]([O-])c1cccc(-c2nnc(-c3ccc4c(c3)OCO4)o2)c1", "inhibition": "inconclusive: 41%"},
      {"smiles": "Cc1coc2c1C(=O)C(=O)c1c-2ccc2c1CCCC2(C)C", "inhibition": "inconclusive: 51.7%"},
      {"smiles": "CCn1cc([N+](=O)[O-])c(C(=O)N2N=C3/C(=C/c4cccs4)CCCC3C2c2cccs2)n1", "note": "(stereo not drawn)", "inhibition": "inconclusive: 49.9%"},
      {"smiles": "Cc1ccc2nsnc2c1NS(=O)(=O)c1c(C)ccc2nsnc12", "inhibition": "inconclusive: 33.8%"},
      {"smiles": "O=C(NCc1ccco1)C1CCCN(S(=O)(=O)c2cnc[nH]2)C1", "note": "(stereo not drawn)", "inhibition": "inconclusive: 34.2%"},
      {"smiles": "CC(=C/c1ccco1)/C=N/NC(=O)c1nnn(-c2nonc2N)c1CN(C)C", "inhibition": "inconclusive: 33.5%"},
      {"smiles": "COc1ccc(CCn2c(NN=C3CCCCC3)nc3c2c(=O)[nH]c(=O)n3C)cc1", "inhibition": "inconclusive: 48%"},
      {"smiles": "COc1cc(C2CC(=O)n3c(nc4ccccc43)S2)cc(OC)c1OC", "note": "(stereo not drawn)", "inhibition": "inconclusive: 38.1%"},
      {"smiles": "CN(CC(=O)Nc1ccc2c(c1)CCC2)CC(=O)Nc1ccccc1Br", "inhibition": "inconclusive: 45.4%"},
      {"smiles": "O=C(Cn1nnc(-c2ccccc2Cl)n1)N1CCN(S(=O)(=O)c2ccc(Cl)cc2)CC1", "inhibition": "inconclusive: 41.3%"},
      {"smiles": "COc1ccc(CCN=Cc2c(C)[nH]n(-c3ccc([N+](=O)[O-])cc3)c2=O)cc1OC", "inhibition": "inactive: 3.12%"},
      {"smiles": "NCCNCCNCCN", "inhibition": "inconclusive: 33.4%"},
      {"smiles": "CC(=O)N1CC[n+]2c(-c3ccc([N+](=O)[O-])cc3)csc21", "inhibition": "inconclusive: 34.3%"},
      {"smiles": "COc1cccc(/C=C/C(=O)OCC(=O)Nc2cc(S(=O)(=O)N3CCOCC3)ccc2C)c1", "inhibition": "inactive: -9.36%"},
      {"smiles": "Cc1ccccc1NCN1C(=O)C2CCC(C)(C1=O)C2(C)C", "note": "(stereo not drawn)", "inhibition": "inconclusive: 55.7%"},
      {"smiles": "CC(C)CCN1C(=O)CCC1(C)C(=O)NC1CCCCCCC1", "note": "(stereo not drawn)", "inhibition": "inconclusive: 37.7%"},
      {"smiles": "COC(=O)COc1ccc(NC(=O)c2ccco2)cc1", "inhibition": "inconclusive: 45.8%"},
      {"smiles": "O=C(CCC1CCCC1)NNC(=O)c1ccccc1O", "inhibition": "inactive: -4.22%"},
      {"smiles": "Cc1ccc(Cn2c(NC(=O)c3ccco3)nc3ccccc32)cc1", "inhibition": "inconclusive: 39.3%"},
      {"smiles": "CCCc1nc2ccccc2c(=O)n1N", "inhibition": "inconclusive: 60.4%"},
      {"smiles": "CSc1nc2ccccc2nc1N(C)S(=O)(=O)c1ccc(C)cc1", "inhibition": "inconclusive: 36.5%"},
      {"smiles": "CN1CCN(S(=O)(=O)c2ccc(NC(=S)NC(=O)c3ccccc3)cc2)CC1", "inhibition": "inactive: 0.13%"},
      {"smiles": "O=C(CSc1nc(-c2ccc(Cl)cc2)cs1)Nc1cccc([N+](=O)[O-])c1", "inhibition": "inconclusive: 33.6%"},
      {"smiles": "CCOC(=O)C1(CCc2ccccc2)CCN(Cc2c(O)cccc2OC)CC1", "inhibition": "inconclusive: 42.2%"},
      {"smiles": "Nc1ccc(C(=O)OCc2ccncc2)cc1[N+](=O)[O-]", "inhibition": "inconclusive: 37.2%"},
      {"smiles": "O=C(CNC(=O)c1ccc2c(c1)OCO2)N/N=C(Br)/C=C/c1ccccc1", "inhibition": "inconclusive: 36.7%"},
      {"smiles": "CC(OC(=O)CCC1CCCCC1)C(=O)Nc1ccc(S(N)(=O)=O)cc1", "note": "(stereo not drawn)", "inhibition": "inactive: 6.23%"},
      {"smiles": "Cc1cccc(CN2CCN(CC(=O)NCc3cccs3)C2=O)c1", "inhibition": "inconclusive: 43.1%"},
      {"smiles": "CCC(NC(=O)NC1CCCCC1)c1ccccc1", "note": "(stereo not drawn)", "inhibition": "inconclusive: 64.7%"},
      {"smiles": "CC(=O)Nc1cccc(CNCc2cccc(NC(C)=O)c2)c1", "inhibition": "inconclusive: 39.2%"},
      {"smiles": "CCOC(=O)C1(Cc2cccc(OC)c2)CCN(Cc2cnc(N)nc2)CC1", "inhibition": "inconclusive: 39.2%"},
      {"smiles": "C#CCNC(=O)C1=C[C@@H](c2ccc(C(F)(F)F)cc2)[C@H](CCCO)[C@@H](OCC)O1", "inhibition": "inconclusive: 37.3%"},
      {"smiles": "CC(=O)c1cccc(NC(=O)CSCc2ccc(Br)cc2)c1", "inhibition": "inconclusive: 42.3%"},
      {"smiles": "Cc1ccc(/C=C(\\C#N)C(=O)Nc2cccc3ncccc23)o1", "inhibition": "inconclusive: 45.2%"},
      {"smiles": "Cc1ccc(CN(C(=O)c2ccco2)C(C(=O)NC2CCCC2)c2ccc(N3CCOCC3)cc2)cc1", "note": "(stereo not drawn)", "inhibition": "inconclusive: 35.5%"},
      {"smiles": "Cc1nc2ccc(NC(=O)c3cc([N+](=O)[O-])cc([N+](=O)[O-])c3Cl)cc2s1", "inhibition": "inconclusive: 49.8%"},
      {"smiles": "CCOc1cc(C(=O)CCC(=O)OCC(=O)N2c3ccccc3NC(=O)C2(C)C)ccc1O", "inhibition": "inconclusive: 59.7%"},
      {"smiles": "O=C(O)c1ccc2c(=O)n3cc(C(=O)c4ccccc4O)cc(Cl)c3nc2c1", "inhibition": "inconclusive: 44.5%"},
      {"smiles": "CC(C(=O)NC1=NCCS1)(C(F)(F)F)C(F)(F)F", "inhibition": "inactive: -4.2%"},
      {"smiles": "Nc1cccc(CCc2ccncc2)c1", "inhibition": "inconclusive: 46.4%"},
      {"smiles": "COc1ccc(OC)c(CN2CCN(C(=O)c3cccs3)CC2)c1", "inhibition": "inactive: 1.09%"},
      {"smiles": "CCNc1nc(NC(C)C)nc(N(C#N)C(C)C(=O)N(C)C)n1", "note": "(stereo not drawn)", "inhibition": "inconclusive: 33.1%"},
      {"smiles": "C=CCN(CC=C)C(=S)NC(=O)c1ccc(-c2ccccc2)cc1", "inhibition": "inconclusive: 41.5%"},
      {"smiles": "Cc1cccc(N(CC(=O)N2CCN(c3ccccc3F)CC2)S(C)(=O)=O)c1", "inhibition": "inconclusive: 34.5%"}
    ]}
  ]
}
